# Measured values published in PubChem BioAssay AID2685 (National Center for Advancing Translational Sciences (NCATS), 2010).
# The other results are listed elsewhere or left out. The main result of the screen is listed elsewhere. These columns were measured beside it and carry no call. The list favours compounds with an active or inconclusive main result. The note in brackets gives the kind of curve behind each potency; many fits are weak.
# Experiment: qHTS Assay for Lipid Storage Modulators in Drosophila S3 Cells;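 as to cell number change: cells counted by Cell Tracker Red CMTPX staining in the red channel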
# Details: BODIPY lipid droplet fluorescence, 18-24 h; for cell number change: measured here: cell count max response, cells fed with added oleic acid
# How it was run: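 Drosophila S3 cells got compounds at several concentrations plus oleic acid (400 uM solution). Laser-scanning cytometry with 488 nm excitation read lipid droplets at 500-530 nm and cells at 575-640 nm. Percent activity was relative to 20 uM Triacsin C.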
# [1] = measured here: lipid fluorescence (Fed channel) AC50, cells fed with added oleic acid
# [2] = measured here: cell number channel AC50, cells fed with added oleic acid
Structure (SMILES),cell number change,AC50 [1],AC50 [2]
Cc1ccc(CN2CC(C(=O)Nc3ccc(C)cn3)CC2=O)cc1 (stereo not given),21%,"25.9 µM [rising, single point]",
O=c1nc2n(c3ccccc13)Cc1ccccc1-2,9.65%,"6.51 µM [rising, single point]",
Cc1ccc(OCC(=O)Nc2ccccc2N2CCOCC2)c(C)c1,0.188%,,
CCOC(=O)c1c(C)[nH]c(C(=O)/C(C#N)=C/c2ccc(OC(F)F)c(OC)c2)c1C,42.1%,,"5.17 µM [rising, partial curve]"
Cc1cc(C)n2c(Br)c(CSc3nc4ccccc4o3)nc2n1,2.84%,"25.9 µM [rising, single point]",
O=C(O)c1ccccc1SCc1cn2cc(Cl)ccc2n1,16.7%,,"1.64 µM [falling, partial curve]"
COc1ccc(-c2csc(-c3ccc(O)cc3)n2)cc1,-48.8%,"29.1 µM [falling, single point]","29.1 µM [falling, single point]"
CC12CCC(=O)N1C(C(=O)NNC(=O)c1ccc(Br)cc1)CS2 (stereo not given),3%,,
Cc1occc1-c1nnc(SCC(=O)Nc2nc(-c3ccccc3)cs2)o1,-52.9%,"18.4 µM [falling, single point]","20.6 µM [falling, single point]"
O=C(Nc1ccc(F)cc1)C1C2CCC3C(CCC21)C3(Cl)Cl (stereo not given),16.4%,,
CN1C(=O)/C(=C\c2ccco2)N=C1c1ccc(Cl)cc1Cl,6.28%,"20.6 µM [rising, single point]",
COc1ccc(N2C(=O)C3C(C2=O)C2C=CC3C23CC3)c(OC)c1 (stereo not given),-0.0696%,"14.6 µM [falling, partial curve, poor fit]",
Cc1cccn2cc(CCNC(=O)c3ccco3)nc12,-3.43%,,
O=C(N/N=C/c1ccncc1)C1CC1C(=O)N/N=C/c1ccncc1 (stereo not given),-7.07%,,
COc1cccc(N(C(=O)c2cnccn2)C(C(=O)NC2CCCCC2)c2ccc(Cl)cc2)c1 (stereo not given),,"0.411 µM [rising, partial curve, poor fit]",
CCOc1ccc(N(CC(=O)Nc2cccc(Cl)c2)S(=O)(=O)c2c(C)noc2C)cc1,-12.5%,"0.58 µM [falling, partial curve]",
COc1ccccc1-c1nc2cc(Cl)ccc2c(=O)n1O,19.9%,"3.66 µM [falling, single point]",
CC(C)C(NC(=O)c1ccccc1Cl)C(=O)OCc1nc2scc(-c3ccccc3Cl)c2c(=O)[nH]1 (stereo not given),15.8%,"29.1 µM [rising, single point]",
Cc1ccc2oc(=O)c3cc(C(=O)NCCCN4CCCCCC4)sc3c2c1,-5.67%,,
Cc1ccc(NC(=O)c2cnn(-c3ccccc3)c2NC(=O)c2ccco2)cc1,0.84%,"0.651 µM [falling, single point]",
NC(=O)COc1ccc2cc(-c3ccccc3)c(=O)oc2c1,-16.4%,"0.206 µM [falling, full curve, poor fit]",
O=C(CCNS(=O)(=O)c1ccc(OC(F)(F)F)cc1)N1CCCC1,-0.803%,,

Structure (SMILES),cell number change,AC50 [1],AC50 [2]
CC(C)Cn1cnc2c1c(=O)n(CC(=O)Nc1ccc3c(c1)OCO3)c(=O)n2Cc1ccccc1,54.8%,"16.4 µM [rising, partial curve]","20.6 µM [rising, single point]"
Cc1ccc(N(C(=O)Cn2nnc(-c3ccccc3F)n2)C(C(=O)NC2CCCC2)c2ccncc2)cc1 (stereo not given),-25.7%,,
Cc1ccccc1Cn1nnc(-c2ccc(F)cc2)n1,-30.6%,"0.651 µM [falling, partial curve, poor fit]",
COc1ccc2oc(C(=O)NNC(=O)c3ccc(F)cc3)c(C)c2c1,,"13 µM [rising, partial curve]",
O=C(O)c1cc([N+](=O)[O-])ccc1Nc1ccccc1,-37%,"6.51 µM [rising, single point]","5.8 µM [falling, partial curve]"
CC12CN3CC(C)(CN(C1)C31C(=O)N(Cc3ccccc3)c3ccccc31)C2=O (stereo not given),13.7%,"20.6 µM [rising, single point]",
Cc1ccc2c(c1)N(C(=O)CCC(=O)N1CCc3ccccc3C1)CCO2,-17.4%,,
CC(=O)c1ccc(OCC(O)CN2CCN(c3ccccn3)CC2)cc1 (stereo not given),,"8.2 µM [falling, partial curve, poor fit]",
CCOC(=O)c1c(C)[nH]c(C)c1C(=O)COC(=O)c1cccnc1SC,-4.89%,"0.731 µM [falling, partial curve, poor fit]",
CCOC(=O)C1CCCN(Cc2ccc(OC)cc2OC)C1 (stereo not given),-14.9%,"0.517 µM [falling, full curve]",
CC(C)(C)C(=O)/C=C/Nc1ccccc1O,-9.59%,"4.11 µM [rising, single point]","0.82 µM [falling, partial curve]"
O=C(CC1(O)C(=O)Nc2ccccc21)c1cccc(Br)c1 (stereo not given),2.33%,"9.2 µM [falling, partial curve]",
Cc1cccc(S(=O)(=O)c2c(N)n(/N=C/c3cccnc3)c3nc4ccccc4nc23)c1,-2.39%,,
CNC(=S)N/N=C(\C)c1cccc(C(F)(F)F)c1,,"3.26 µM [rising, single point]",
COc1cc(C(C)=O)ccc1OC(=O)c1cc2cccc(OC)c2oc1=O,-1.06%,,
COc1cccc(CN2CCC(n3nccc3NC(=O)CCCc3ccccc3)CC2)c1O,-23.8%,"6.51 µM [falling, single point]",
CC1CCC(N2CCN(c3ncccn3)CC2)C1 (stereo not given),-29.5%,,
CN(CC(=O)Nc1ccccc1Cl)CC(=O)N1CCc2ccccc21,12.4%,"2.06 µM [rising, full curve]",
CC(C)(C)C1CCC(=NNC(=O)c2ccc(Br)o2)CC1 (stereo not given),19.2%,"0.00517 µM [rising, full curve, poor fit]",
COc1cccc(NC(=O)c2ccc3c(c2)N(CC(=O)N2CCCCC2)C(=O)C(C)(C)O3)c1,11.7%,"0.13 µM [falling, full curve, poor fit]",
CCC(CC)c1nnc(NC(=O)CN2C(=O)c3ccccc3C2=O)s1,-2.14%,,
COc1ccc(-n2nnnc2/C=C\Nc2ccc(C)cc2)cc1,19.4%,"0.13 µM [falling, full curve, poor fit]",

Structure (SMILES),cell number change,AC50 [1],AC50 [2]
Nc1ccccc1Nc1ccccc1,-47.3%,"7.31 µM [falling, partial curve]","23.1 µM [falling, single point]"
Cc1ccc(CNC(=O)C2CCC(=O)N(CCc3ccccc3)C2)s1 (stereo not given),8.24%,"6.51 µM [rising, single point]",
Cc1cc(C)nc(Sc2nc(Cl)nc(N(c3ccccc3)c3ccccc3)n2)n1,-46.6%,"29.1 µM [falling, single point]","29.1 µM [falling, single point]"
CCC(C)Nc1c([N+](=O)[O-])cc(C)cc1[N+](=O)[O-] (stereo not given),-8.33%,"29.1 µM [falling, single point]",
CC1CC(C)CN(C(=O)C2CC(=O)N(c3ccc4c(c3)OCCO4)C2)C1 (stereo not given),12.8%,"0.326 µM [rising, partial curve, poor fit]",
COCCCNc1nc(N)c([N+](=O)[O-])c(NCc2ccccc2)n1,-45.9%,,"4.61 µM [falling, full curve]"
Cc1c(NC(=S)Nc2ccc(Cl)cc2)c(=O)n(-c2ccccc2)n1C,-1.87%,"3.26 µM [falling, single point]","4.11 µM [falling, single point]"
COc1ccc(CCNC(=O)CCc2nnc(Cc3ccc4c(c3)OCO4)o2)c(OC)c1,7.92%,"29.1 µM [rising, single point]",
COc1cccc(C2N(Cc3ccccc3)C(=O)C2(F)F)c1OC (stereo not given),-26.9%,"0.206 µM [rising, full curve]",
O=c1cc(CSc2ccc(Cl)cc2)nc2nc[nH]n12,-2.09%,"32.6 µM [rising, single point]",
CC(NC(=O)c1csc2ccccc12)C1CCCO1 (stereo not given),-178%,,"29.1 µM [falling, partial curve]"
COC(=O)c1ccc(NC(=O)c2ccc3c(c2)OCO3)cc1,14%,"1.03 µM [rising, full curve, poor fit]",
CC(NC(=O)c1ccccc1Cl)C(=O)O (stereo not given),-12.4%,"23.1 µM [falling, partial curve]",
N#Cc1ccsc1NC(=O)COc1ccc(-c2nnco2)cc1,37.3%,"2.06 µM [rising, full curve, poor fit]","29.1 µM [rising, single point]"
CCCCN1C(=O)C(=O)N(CC(=O)c2cc(C)n(C3CC3)c2C)C1=O,11.4%,,
CCn1cc(C(=O)NCc2ccccn2)c(=O)c2cc(S(=O)(=O)N3CCCCC3)ccc21,-2.38%,,
CCOc1ccc(NC(=O)CSC(N)=O)cc1,3.35%,,
CC(=O)c1ccc(NC(=O)C2CCCN2S(=O)(=O)c2cccc3cccnc23)cc1 (stereo not given),-36.9%,"1.03 µM [falling, full curve]","1.16 µM [falling, full curve]"
COc1ccc(C2C(Oc3ccccc3C)C(=O)N2Cc2ccc(F)cc2)cc1OC (stereo not given),118%,"32.6 µM [rising, single point]","20.6 µM [rising, partial curve]"
CC1CC(=O)N(CC(=O)Nc2ccc3c(c2)OCO3)c2ccccc2S1 (stereo not given),38.2%,"0.731 µM [rising, full curve]","1.16 µM [rising, partial curve]"

# Laid out differently: 3 of the compounds above.
Structure (SMILES)	cell number change	AC50 [1]	AC50 [2]
CN1C(=O)/C(=C\c2ccco2)N=C1c1ccc(Cl)cc1Cl	6.28%	20.6 µM [rising, single point]	
Cc1ccc2oc(=O)c3cc(C(=O)NCCCN4CCCCCC4)sc3c2c1	-5.67%		
O=C(CCNS(=O)(=O)c1ccc(OC(F)(F)F)cc1)N1CCCC1	-0.803%		
